Results taken from doi:10.1101/2021.10.25.465663.
Results are given in words; binding and its absence hold for the method and conditions named. Binding seen in cells or lysates may run through a third protein. Binding can be weak; no strength is given.

Biological target: PER^I530A protein, endogenously tagged with the V5 epitope (Drosophila melanogaster)
Assay: co-IP

B1: TIMELESS (TIM) (protein, UniProt P49021 1-1398)
chain: MDWLLATPQLYSAFSSLGCLEGDTYVVNPNALAILEEINYKLTYEDQTLRTFRRAIGFGQNVRSDLIPLLENAKDDAVLESVIRILVNLTVPVECLFSVDVMYRTDVGRHTIFELNKLLYTSKEAFTEARSTKSVVEYMKHILESDPKLSPHKCDQINNCLLLLRNILHIPETHAHCVMPMMQSMPHGISMQNTILWNLFIQSIDKLLLYLMTCPQRAFWGVTMVQLIALIYKDQHVSTLQKLLSLWFEASLSESSEDNESNTSPPKQGSGDSSPMLTSDPTSDSSDNGSNGRGMGGGMREGTAATLQEVSRKGQEYQNAMARVPADKPDGSEEASDMTGNDSEQPGSPEQSQPAGESMDDGDYEDQRHRQLNEHGEEDEDEDEVEEEEYLQLGPASEPLNLTQQPADKVNNTTNPTSSAPQGCLGNEPFKPPPPLPVRASTSAHAQMQKFNESSYASHVSAVKLGQKSPHAGQLQLTKGKCCPQKRECPSSQSELSDCGYGTQVENQESISTSSNDDDGPQGKPQHQKPPCNTKPRNKPRTIMSPMDKKELRRKKLVKRSKSSLINMKGLVQHTPTDDDISNLLKEFTVDFLLKGYSYLVEELHMQLLSNAKVPIDTSHFFWLVTYFLKFAAQLELDMEHIDTILTYDVLSYLTYEGVSLCEQLELNARQEGSDLKPYLRRMHLVVTAIREFLQAIDTYNKVTHLNEDDKAHLRQLQLQISEMSDLRCLFVLLLRRFNPSIHSKQYLQDLVVTNHILLLILDSSAKLGGCQTIRLSEHITQFATLEVMHYYGILLEDFNNNGEFVNDCIFTMMHHIGGDLGQIGVLFQPIILKTYSRIWEADYELCDDWSDLIEYVIHKFMNTPPKSPLTIPTTSLTEMTKEHNQEHTVCSWSQEEMDTLYWYYVQSKKNNDIVGKIVKLFSNNGNKLKTRISIIQQLLQQDIITLLEYDDLMKFEDAEYQRTLLTTPTSATTESGIEIKECAYGKPSDDVQILLDLIIKENKAQHLLWLQRILIECCFVKLTLRSGLKVPEGDHIMEPVAYHCICKQKSIPVVQWNNEQSTTMLYQPFVLLLHKLGIQLPADAGSIFARIPDYWTPETMYGLAKKLGPLDKLNLKFDASELEDATASSPSRYHHTGPRNSLSSVSSLDVDLGDTEELALIPEVDAAVEKAHAMASTPSPSEIFAVPKTKHCNSIIRYTPDPTPPVPNWLQLVMRSKCNHRTGPSGDPSDCIGSSSTTVDDEGFGKSISAATSQAASTSMSTVNPTTTLSLNMLNTFMGSHNENSSSSGCGGTVSSLSMVALMSTGAAGGGGNTSGLEMDVDASMKSSFERLEVNGSHFSRANNLDQEYSAMVASVYEKEKELNSDNVSLASDLTRMYVSDEDDRLERTEIRVPHYH
  binding: binds
